The list shows a part of the results.
Compound: Cc1cc(ccc1-c1ccccc1)C(=O)N1CCCN(CC1)C(=O)CCl [compound 10]
Assay: probe-labelled cysteine peptide fold change vs DMSO (competition) (log2 fold change); higher = less target engagement (more negative = stronger competition)
Details: THP-1, incubation time: 4 h
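Also: competitive profiling in live THP-1 cells: cysteine peptides tagged with an iodoacetamide desthiobiotin (IA-DTB) probe, intensity after compound treatment relative to DMSO-treated cells.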

The chains behind the UniProt entries cited, without tags or fusion partners. Where a name states a change or a piece, a line headed by the entry shows the natural chain unless it says otherwise.
UniProt P30566: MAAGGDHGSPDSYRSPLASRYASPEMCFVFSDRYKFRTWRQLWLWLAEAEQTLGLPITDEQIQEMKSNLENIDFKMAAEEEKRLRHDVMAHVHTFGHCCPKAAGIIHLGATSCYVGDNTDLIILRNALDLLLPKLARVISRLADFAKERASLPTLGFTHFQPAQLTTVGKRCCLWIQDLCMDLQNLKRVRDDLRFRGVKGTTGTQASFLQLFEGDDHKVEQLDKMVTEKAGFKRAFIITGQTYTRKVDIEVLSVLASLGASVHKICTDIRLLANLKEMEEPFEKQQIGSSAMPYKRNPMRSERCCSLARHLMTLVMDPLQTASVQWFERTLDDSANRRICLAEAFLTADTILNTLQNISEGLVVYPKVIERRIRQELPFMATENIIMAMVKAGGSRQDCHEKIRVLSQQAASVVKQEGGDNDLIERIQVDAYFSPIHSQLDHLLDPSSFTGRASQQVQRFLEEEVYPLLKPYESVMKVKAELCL
UniProt O60488: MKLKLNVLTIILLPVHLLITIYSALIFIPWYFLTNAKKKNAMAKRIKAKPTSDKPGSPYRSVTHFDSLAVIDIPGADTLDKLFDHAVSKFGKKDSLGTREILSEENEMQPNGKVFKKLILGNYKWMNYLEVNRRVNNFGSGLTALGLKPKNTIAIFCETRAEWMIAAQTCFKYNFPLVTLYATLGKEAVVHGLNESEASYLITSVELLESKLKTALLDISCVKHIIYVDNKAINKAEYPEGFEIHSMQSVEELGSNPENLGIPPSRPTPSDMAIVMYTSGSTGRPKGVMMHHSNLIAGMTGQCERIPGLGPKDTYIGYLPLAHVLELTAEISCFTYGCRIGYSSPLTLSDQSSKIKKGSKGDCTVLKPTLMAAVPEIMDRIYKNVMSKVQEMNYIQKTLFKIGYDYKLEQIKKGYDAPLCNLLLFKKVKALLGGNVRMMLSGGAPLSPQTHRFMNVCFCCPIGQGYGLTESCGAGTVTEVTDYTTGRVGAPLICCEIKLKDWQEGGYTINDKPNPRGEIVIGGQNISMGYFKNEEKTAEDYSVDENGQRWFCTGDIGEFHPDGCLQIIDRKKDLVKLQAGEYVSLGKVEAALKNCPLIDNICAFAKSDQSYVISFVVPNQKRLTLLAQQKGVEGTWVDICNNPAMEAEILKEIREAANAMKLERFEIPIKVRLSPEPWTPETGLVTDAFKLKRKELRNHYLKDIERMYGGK
UniProt P35573: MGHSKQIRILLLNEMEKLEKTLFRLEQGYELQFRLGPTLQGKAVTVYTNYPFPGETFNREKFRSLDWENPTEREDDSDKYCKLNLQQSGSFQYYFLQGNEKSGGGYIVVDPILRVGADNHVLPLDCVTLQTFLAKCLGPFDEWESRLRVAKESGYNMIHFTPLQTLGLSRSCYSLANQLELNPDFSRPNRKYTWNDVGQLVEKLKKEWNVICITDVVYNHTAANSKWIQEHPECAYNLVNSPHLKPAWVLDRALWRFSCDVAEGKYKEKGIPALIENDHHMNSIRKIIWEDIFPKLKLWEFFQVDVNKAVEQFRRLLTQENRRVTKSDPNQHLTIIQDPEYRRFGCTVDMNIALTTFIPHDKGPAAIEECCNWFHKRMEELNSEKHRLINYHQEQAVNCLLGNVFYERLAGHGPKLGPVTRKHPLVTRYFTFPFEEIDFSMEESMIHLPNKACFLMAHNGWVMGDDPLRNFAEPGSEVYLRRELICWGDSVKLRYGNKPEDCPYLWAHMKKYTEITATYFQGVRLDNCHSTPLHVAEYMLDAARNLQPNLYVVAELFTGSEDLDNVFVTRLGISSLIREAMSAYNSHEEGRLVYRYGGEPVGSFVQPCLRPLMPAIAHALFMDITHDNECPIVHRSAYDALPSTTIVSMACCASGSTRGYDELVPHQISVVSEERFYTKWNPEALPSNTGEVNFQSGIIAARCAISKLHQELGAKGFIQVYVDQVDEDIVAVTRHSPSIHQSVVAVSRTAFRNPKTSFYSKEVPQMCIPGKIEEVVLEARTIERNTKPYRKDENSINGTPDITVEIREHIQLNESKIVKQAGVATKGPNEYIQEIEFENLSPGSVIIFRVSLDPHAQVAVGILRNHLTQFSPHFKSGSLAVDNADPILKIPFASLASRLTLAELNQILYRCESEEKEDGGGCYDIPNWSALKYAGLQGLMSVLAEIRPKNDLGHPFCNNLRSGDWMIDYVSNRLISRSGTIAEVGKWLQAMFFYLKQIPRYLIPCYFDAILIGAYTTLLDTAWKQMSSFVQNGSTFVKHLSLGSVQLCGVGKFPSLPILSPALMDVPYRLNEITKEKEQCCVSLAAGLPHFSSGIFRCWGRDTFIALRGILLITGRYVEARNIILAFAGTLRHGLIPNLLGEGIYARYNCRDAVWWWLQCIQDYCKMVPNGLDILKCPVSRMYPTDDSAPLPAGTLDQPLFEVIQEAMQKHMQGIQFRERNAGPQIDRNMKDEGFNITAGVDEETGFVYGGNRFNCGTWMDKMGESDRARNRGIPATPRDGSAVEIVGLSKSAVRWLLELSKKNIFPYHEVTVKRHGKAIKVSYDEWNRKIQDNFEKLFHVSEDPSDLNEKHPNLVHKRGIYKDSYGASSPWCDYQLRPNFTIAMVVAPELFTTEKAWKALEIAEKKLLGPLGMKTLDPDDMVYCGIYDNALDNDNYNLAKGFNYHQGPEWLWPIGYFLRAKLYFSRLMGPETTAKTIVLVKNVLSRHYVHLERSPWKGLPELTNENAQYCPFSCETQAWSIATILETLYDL
UniProt P78536: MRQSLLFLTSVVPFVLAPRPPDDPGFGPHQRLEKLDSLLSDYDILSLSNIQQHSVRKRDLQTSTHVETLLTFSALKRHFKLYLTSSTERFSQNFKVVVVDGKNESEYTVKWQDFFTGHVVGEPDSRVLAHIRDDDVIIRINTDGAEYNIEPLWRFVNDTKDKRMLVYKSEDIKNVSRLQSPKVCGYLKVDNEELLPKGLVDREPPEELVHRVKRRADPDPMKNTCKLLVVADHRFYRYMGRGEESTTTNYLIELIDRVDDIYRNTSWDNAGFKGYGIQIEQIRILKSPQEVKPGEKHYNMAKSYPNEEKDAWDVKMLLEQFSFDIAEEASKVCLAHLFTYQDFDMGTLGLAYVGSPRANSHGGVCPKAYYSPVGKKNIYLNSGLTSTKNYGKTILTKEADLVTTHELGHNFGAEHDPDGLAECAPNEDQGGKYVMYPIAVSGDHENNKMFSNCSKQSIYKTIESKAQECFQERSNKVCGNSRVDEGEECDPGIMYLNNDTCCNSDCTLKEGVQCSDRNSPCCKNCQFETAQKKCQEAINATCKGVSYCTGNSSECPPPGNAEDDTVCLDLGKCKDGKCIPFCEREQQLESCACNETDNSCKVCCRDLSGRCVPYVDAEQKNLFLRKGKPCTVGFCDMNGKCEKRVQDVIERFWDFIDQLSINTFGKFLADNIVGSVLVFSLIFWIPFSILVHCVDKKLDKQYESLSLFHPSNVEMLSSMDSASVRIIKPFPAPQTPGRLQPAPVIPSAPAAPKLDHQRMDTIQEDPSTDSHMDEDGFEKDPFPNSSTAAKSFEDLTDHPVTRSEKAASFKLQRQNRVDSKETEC
UniProt P12814, whole entry, looked up: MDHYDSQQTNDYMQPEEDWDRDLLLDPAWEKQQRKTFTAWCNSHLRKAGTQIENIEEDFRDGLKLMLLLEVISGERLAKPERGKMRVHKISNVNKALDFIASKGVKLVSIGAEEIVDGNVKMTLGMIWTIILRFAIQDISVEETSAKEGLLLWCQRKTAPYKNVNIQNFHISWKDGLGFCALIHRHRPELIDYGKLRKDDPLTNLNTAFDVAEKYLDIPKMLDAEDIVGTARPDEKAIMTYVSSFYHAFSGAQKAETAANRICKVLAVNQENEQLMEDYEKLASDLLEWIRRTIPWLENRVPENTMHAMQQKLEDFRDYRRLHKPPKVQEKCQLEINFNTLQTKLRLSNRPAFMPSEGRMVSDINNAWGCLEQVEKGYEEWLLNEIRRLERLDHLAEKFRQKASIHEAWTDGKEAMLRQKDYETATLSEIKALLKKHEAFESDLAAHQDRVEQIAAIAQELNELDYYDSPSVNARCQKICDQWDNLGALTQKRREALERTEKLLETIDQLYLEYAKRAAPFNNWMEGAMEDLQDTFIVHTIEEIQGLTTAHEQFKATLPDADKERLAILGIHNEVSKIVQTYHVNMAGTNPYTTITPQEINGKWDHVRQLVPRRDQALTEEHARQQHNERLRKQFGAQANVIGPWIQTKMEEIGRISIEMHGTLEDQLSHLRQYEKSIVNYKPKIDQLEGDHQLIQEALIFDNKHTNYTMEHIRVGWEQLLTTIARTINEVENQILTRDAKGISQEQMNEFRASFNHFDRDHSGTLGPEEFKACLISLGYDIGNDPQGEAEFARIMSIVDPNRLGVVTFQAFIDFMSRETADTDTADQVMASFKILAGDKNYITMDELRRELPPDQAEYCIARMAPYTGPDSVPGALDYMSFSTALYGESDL
UniProt O95490: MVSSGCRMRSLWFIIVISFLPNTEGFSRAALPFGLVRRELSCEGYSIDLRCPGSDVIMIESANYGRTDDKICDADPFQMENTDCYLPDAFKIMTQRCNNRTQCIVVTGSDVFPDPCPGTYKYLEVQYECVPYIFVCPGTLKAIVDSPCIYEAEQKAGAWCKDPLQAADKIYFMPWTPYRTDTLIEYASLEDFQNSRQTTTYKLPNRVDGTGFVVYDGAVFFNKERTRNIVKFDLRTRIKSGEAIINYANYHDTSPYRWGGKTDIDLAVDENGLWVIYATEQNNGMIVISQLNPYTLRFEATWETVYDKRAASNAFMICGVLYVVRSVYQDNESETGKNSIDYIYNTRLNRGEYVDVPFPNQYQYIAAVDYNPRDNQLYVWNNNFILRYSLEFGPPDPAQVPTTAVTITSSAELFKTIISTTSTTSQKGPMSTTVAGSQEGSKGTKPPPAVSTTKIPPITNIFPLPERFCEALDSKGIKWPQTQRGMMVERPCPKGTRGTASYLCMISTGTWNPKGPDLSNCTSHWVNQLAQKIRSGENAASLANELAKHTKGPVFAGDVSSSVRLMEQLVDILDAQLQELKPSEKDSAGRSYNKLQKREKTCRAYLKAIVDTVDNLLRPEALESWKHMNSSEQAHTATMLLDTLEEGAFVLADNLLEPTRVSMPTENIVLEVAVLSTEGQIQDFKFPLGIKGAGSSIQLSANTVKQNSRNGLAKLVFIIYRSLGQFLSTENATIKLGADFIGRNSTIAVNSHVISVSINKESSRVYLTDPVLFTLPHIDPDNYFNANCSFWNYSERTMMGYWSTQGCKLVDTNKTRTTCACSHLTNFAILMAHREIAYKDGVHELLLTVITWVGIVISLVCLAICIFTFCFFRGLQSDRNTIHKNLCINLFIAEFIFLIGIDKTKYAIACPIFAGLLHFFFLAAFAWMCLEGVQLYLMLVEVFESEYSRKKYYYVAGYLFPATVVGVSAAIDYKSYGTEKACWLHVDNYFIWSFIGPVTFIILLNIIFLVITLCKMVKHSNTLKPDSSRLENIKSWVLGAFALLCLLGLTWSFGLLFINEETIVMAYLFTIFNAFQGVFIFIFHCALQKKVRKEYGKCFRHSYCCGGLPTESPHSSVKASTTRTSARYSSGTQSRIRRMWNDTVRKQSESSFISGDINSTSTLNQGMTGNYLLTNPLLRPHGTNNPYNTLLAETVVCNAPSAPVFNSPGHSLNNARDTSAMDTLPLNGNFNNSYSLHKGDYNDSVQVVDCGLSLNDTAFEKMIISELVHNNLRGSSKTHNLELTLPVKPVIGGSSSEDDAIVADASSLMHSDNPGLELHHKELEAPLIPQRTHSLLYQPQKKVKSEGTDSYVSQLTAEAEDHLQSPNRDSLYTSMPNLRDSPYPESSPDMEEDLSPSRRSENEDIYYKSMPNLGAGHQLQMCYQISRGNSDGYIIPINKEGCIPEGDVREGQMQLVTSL
UniProt P20933: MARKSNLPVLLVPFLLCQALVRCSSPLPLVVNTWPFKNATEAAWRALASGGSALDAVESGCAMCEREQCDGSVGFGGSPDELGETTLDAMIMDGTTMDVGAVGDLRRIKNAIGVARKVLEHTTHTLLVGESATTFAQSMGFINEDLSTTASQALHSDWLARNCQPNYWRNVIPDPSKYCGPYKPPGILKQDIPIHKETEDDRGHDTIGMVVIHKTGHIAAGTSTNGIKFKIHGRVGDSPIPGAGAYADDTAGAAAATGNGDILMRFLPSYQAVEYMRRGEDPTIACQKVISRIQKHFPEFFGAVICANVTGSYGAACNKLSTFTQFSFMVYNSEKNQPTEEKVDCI

Target | probe-labelled cysteine peptide fold change (10 µM) | probe-labelled cysteine peptide fold change (50 µM)
ACTR3_P61158_235_YSYVCPDLVK (UniProt P61158) | -0.059 | -0.00812
AGO1_Q9UL18_304_RPASHQTFPLQLESGQTVECTVAQYFK (UniProt Q9UL18) | 0.0164 | 0.0671
ACY1_Q03154_116_CVSIQYLEAVRR (UniProt Q03154) | -0.0698 | -0.318
ACTR3_P61158_8+12_LPACVVDCGTGYTK (UniProt P61158) | -0.243 | -0.313
ADSL_P30566_98+99_HDVMAHVHTFGHCCPK (UniProt P30566) | -0.145 | -0.645
ACSL4_O60488_552+564_WFCTGDIGEFHPDGCLQIIDR (UniProt O60488) | -0.181 | -0.203
ADAM15_Q13444_179_IQDLHLPGHTCALSWR (UniProt Q13444) | -0.0576 | -0.321
ADARB1_P78563_393_GLALNDCHAEIISR (UniProt P78563) | -0.13 | 0.267
ACSL4_O60488_420_GYDAPLCNLLLFKK (UniProt O60488) | -0.291 | -1.12
AGL_P35573_399_LINYHQEQAVNCLLGNVFYER (UniProt P35573) | 0.173 | -0.125
ACSL4_O60488_303_GVMMHHSNLIAGMTGQCER (UniProt O60488) | 0.0362 | -0.0636
ADAM17_P78536_365_ANSHGGVCPK (UniProt P78536) | 0.08 | 0.249
ADNP2_Q6IQ32_220_CNANASSQDALMYHILTSDIHR (UniProt Q6IQ32) | 0.0714 | 0.0124
ACSL3_O95573_503_VGAPLVCCEIK (UniProt O95573) | 0.0585 | -0.287
ADCY3_O60266_479_CDYLEEK (UniProt O60266) | -0.234 | -0.237
ACTN1_P12814_476_CQKICDQWDNLGALTQKRR (UniProt P12814) | 0.24 | 0.0709
ADPGK_Q9BRR6_178_VLLCGPVGPK (UniProt Q9BRR6) | 0.128 | 0.263
ACSL1_P33121_311_ATENTVNPCPDDTLISFLPLAHMFER (UniProt P33121) | -0.0184 | 0.148

Pulled one by one from the entries so far, two records:
Target | probe-labelled cysteine peptide fold change (10 µM) | probe-labelled cysteine peptide fold change (50 µM)
AGL_P35573_399_LINYHQEQAVNCLLGNVFYER (UniProt P35573) | 0.173 | -0.125
ADAM17_P78536_365_ANSHGGVCPK (UniProt P78536) | 0.08 | 0.249

Next records

Target | probe-labelled cysteine peptide fold change (10 µM) | probe-labelled cysteine peptide fold change (50 µM)
ADGRL2_O95490_160_AGAWCK (UniProt O95490) | -0.121 | -0.0724
ACSF3_Q4G176_86_LCGCVGGDLREER (UniProt Q4G176) | 0.0284 | -0.148
ADAM10_O14672_222_NTCQLYIQTDHLFFK (UniProt O14672) | 0.033 | 0.208
ADAR_P55265_1036_TMSCSDK (UniProt P55265) | -0.163 | 0.0577
ACTR8_Q9H981_351_ETFCHLDQDISGLQDHEFQIR (UniProt Q9H981) | 0.113 | 0.168
ACSS2_Q9NR19_246_CCIVVK (UniProt Q9NR19) | 0.203 | -0.0328
ADH5_P11766_174_VCLLGCGISTGYGAAVNTAK (UniProt P11766) | 0.0907 | -0.0539
AGA_P20933_179_YCGPYKPPGILK (UniProt P20933) | -0.203 | 0.0101
ACOX3_O15254_220_LCVPGDQCHGLHPFIVQIRDPK (UniProt O15254) | -0.277 | -0.2
AGA_P20933_286_RGEDPTIACQK (UniProt P20933) | -0.0749 | 0.294
ADAP1_O75689_101_VPSFYYRPTPSDCQLLR (UniProt O75689) | -0.108 | 0.0541
ADNP_Q9H2P0_514_YLPTDTLLNHMLIHGLSCPYCR (UniProt Q9H2P0) | 0.101 | 0.393
ACTN1_P12814_370_MVSDINNAWGCLEQVEK (UniProt P12814) | -0.0983 | -0.361
ADRM1_Q16186_88_RVPQCPSGR (UniProt Q16186) | -0.183 | 0.0421
ADGRL2_O95490_807_TMMGYWSTQGCK (UniProt O95490) | -0.117 | -0.103
ADSL_P30566_99_LRHDVMAHVHTFGHCCPK (UniProt P30566) | -0.236 | -0.31
ADAM17_P78536_184_VCGYLK (UniProt P78536) | 0.0974 | 0.028
